In patent publication US4000985A, “Azo dyes having a high solubility in petroleum fuels” (Morton-Norwich Products, Inc., priority 1975, dated 1977):

Test: Relative color strength and shade of dye solutions in No. 2 Heating Oil
Format: physicochemical
Details: for % Relative Strength: equal quantities of dye

| SMILES | Relative Shade | % Relative Strength |
| --- | --- | --- |
| CCCCC(CC)CNc1ccc2ccccc2c1N=Nc1ccc(N=Nc2ccccc2C)cc1C (stereo not shown) [Example 1] | Blue Red | 100% |
| CCCCC(CC)CNc1ccc2ccccc2c1N=Nc1ccc(N=Nc2ccccc2)cc1 (stereo not shown) [Example 2] | Blue Red | 121% |
| CCCCC(CC)CNc1ccc2ccccc2c1N=Nc1ccc(N=Nc2ccccc2)cc1C (stereo not shown) [Example 3] | Blue Red | 112% |
| CCCCC(CC)CNc1ccc2ccccc2c1N=Nc1cc(C)c(N=Nc2ccccc2C)cc1C (stereo not shown) [Example 4] | Duller Blue Red | 92% |
| CCCCC(CC)COCCCNc1ccc2ccccc2c1N=Nc1ccc(N=Nc2ccccc2C)cc1C (stereo not shown) [Example 7] | Blue Red | 100% |
| CCCCC(CC)COCCCNc1ccc2ccccc2c1N=Nc1ccc(N=Nc2ccccc2)cc1 (stereo not shown) [Example 8] | Yellower Red | 103% |
| CCCCC(CC)COCCCNc1ccc2ccccc2c1N=Nc1ccc(N=Nc2ccccc2)cc1C (stereo not shown) [Example 9] | Blue Red | 97% |
| CCCCC(CC)COCCCNc1ccc2ccccc2c1N=Nc1cc(C)c(N=Nc2ccccc2C)cc1C (stereo not shown) [Example 10] | Bluer Red | 90% |
